{"source": "PubChem BioAssay AID624291", "about": "(National Center for Advancing Translational Sciences (NCATS), 2012)", "note": "The whole screen tested about 350,000 compounds, of which about 220 (0.063%) were called active. Inconclusive results, whose numbers are uncertain, are shown with a selection of clear calls. The call rests on the fitted dose curve; in most records, active means well fitted activation curve with a large enough effect; inconclusive means small, poorly fitted or top-dose-only effect; inactive means no such curve, though single readings can be large or run the other way. Potencies of inconclusive entries are doubtful fits and often do not repeat."}
{"experiment": "qHTS for Activators of Integrin-Mediated Alleviation for Muscular Dystrophy; further: nearly all actives have a fitted effect of over 60% in size; further: potency means the concentration at half of the fitted maximal effect;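 on activation: 100% = response of the positive control SU9516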", "details": "alpha7betagal myoblasts, beta-gal FDG fluorescence, 48 h; activation: at 38.3 µM (top of the series)", "procedure,_shortened": "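Alpha7betagal+/- myoblasts (passage 13) were plated 16-24 hr, then exposed to compounds (1:260 dilution of DMSO stock) for 48 hours at 37C. After MPER lysis, β-galactosidase reporter activity was read as FDG fluorescence (ex 480/em 540) after 30 minutes.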"}
{"compound": "CC(NC(=O)N1CCOCC1)c1ccccc1", "note": "(centres undefined)", "Potency": "inconclusive: 2.24 µM [activator, partial curve, poor fit]"}
{"compound": "NC(=O)Cc1ccc(Nc2nnc(-c3ccc(O)cc3)c3ccccc23)cc1", "Potency": "inconclusive: 2.82 µM [activator, single point]"}
{"compound": "CCOC(=O)C1(Cc2ccccc2C)CCCN(C(=O)CN2CCCCC2=O)C1", "note": "(centres undefined)", "Potency": "inactive"}
{"compound": "CCN(CC)CCCN(Cc1cc2cc3c(cc2[nH]c1=O)OCO3)C(=S)Nc1ccccc1", "Potency": "inactive"}
{"compound": "O=C(CNC(=O)c1sc2ccccc2c1Cl)NCc1cccnc1", "Potency": "inconclusive: 5.01 µM [activator, single point]"}
{"compound": "Cc1c(-c2cc(Br)ccc2O)nc2cc3c(cc2c1C)OCO3", "Potency": "inconclusive: 3.55 µM [activator, partial curve, poor fit]"}
{"compound": "O=C(Nc1ccc2c(c1)CCC2)c1ccc(Br)s1", "Potency": "inconclusive: 2.24 µM [activator, partial curve, poor fit]"}
{"compound": "CC(=O)c1ccc(OCC(O)CN2CCN(CC(O)COc3ccc(C(C)=O)cc3)CC2)cc1", "note": "(centres undefined)", "Potency": "inactive"}
{"compound": "O=[N+]([O-])c1cccc(-c2nnc3cccc(Cl)n23)c1", "Potency": "inconclusive: 12.6 µM [activator, single point]"}
{"compound": "CSc1ccc(C(=O)C2CCCN(C(=O)c3ccc4c(c3)no[n+]4[O-])C2)cc1", "note": "(centres undefined)", "Potency": "inactive"}
{"compound": "Cc1ccc(C(=O)OCC(=O)NCCC2=CCCCC2)s1", "Potency": "inconclusive: 1 µM [activator, full curve, poor fit]"}
{"compound": "Cc1ccc(S(=O)(=O)N2CCN(C(=O)c3ccc(N4CCCCC4)c([N+](=O)[O-])c3)CC2)cc1", "Potency": "inconclusive: 2.82 µM [activator, full curve, poor fit]"}
{"compound": "CCO[C@@H]1OC(C(=O)N2CCOCC2)=C[C@H](c2ccccc2)[C@H]1CCCO", "Potency": "inactive"}
{"compound": "NS(=O)(=O)c1cc2c(cc1Cl)NC(Cc1ccccc1)NS2(=O)=O", "note": "(centres undefined)", "Potency": "inactive"}
{"compound": "O=C(CSc1nnc(-c2ccccc2Cl)o1)N1CCOCC1", "Potency": "inconclusive: 12.6 µM [activator, single point]"}
{"compound": "Cc1cc(C)c(S(=O)(=O)c2ccccc2F)c(=O)[nH]1", "Potency": "inconclusive: 5.01 µM [activator, single point]"}
{"compound": "O=C(Nc1cc(N2CCCCC2)ncn1)c1ccc(F)cc1", "Potency": "inconclusive: 28.2 µM [activator, single point]"}
{"compound": "Cc1ccc(C(=O)NCCNC(=O)c2ccco2)cc1C", "Potency": "inconclusive: 2.51 µM [activator, single point]"}
{"compound": "COCCNC(=S)N(CCN(C)C)Cc1cc2cc3c(cc2[nH]c1=O)OCO3", "Potency": "inconclusive: 5.01 µM [activator, single point]"}
{"compound": "COCCn1c(=O)[nH]c2cc(C(=O)NCCCN3CCN(c4ccc(F)cc4)CC3)ccc2c1=O", "Potency": "inactive"}
{"compound": "CCCn1cnc2c(Sc3c([N+](=O)[O-])ncn3C)nc(N)nc21", "Potency": "inactive"}
{"compound": "COc1ccccc1N1CCN(C(=O)CSc2nc3ccccc3nc2N2CCC(C)CC2)CC1", "Potency": "inactive"}
{"compound": "COc1ccc(NC(=O)[C@H](C)NC(=O)C2CCN(S(=O)(=O)c3ccc(OC)cc3)CC2)cc1", "Potency": "inconclusive: 2.24 µM [activator, full curve, poor fit]"}
{"compound": "NS(=O)(=O)c1ccc(CCNC(=O)NC2CCCCC2)cc1", "Potency": "inconclusive: 3.16 µM [activator, single point]"}
{"compound": "COc1ccccc1NC(=O)N1CCc2[nH]c3ccc(Cl)cc3c2C1", "Potency": "inconclusive: 2.51 µM [activator, partial curve, poor fit]"}
{"compound": "CCOC(=O)N/N=C\\c1ccc(-c2cc(Cl)ccc2Cl)o1", "Potency": "inconclusive: 2.82 µM [activator, partial curve, poor fit]"}
{"compound": "O=C(CSc1nnc2scc(-c3ccccc3)n12)NCc1ccc2c(c1)OCO2", "Potency": "inconclusive: 2.51 µM [activator, partial curve, poor fit]"}
{"compound": "O=c1[nH]c(C2CCN(S(=O)(=O)c3ccccc3)CC2)nc2c1nnn2Cc1ccc2c(c1)OCCO2", "Potency": "inconclusive: 2.51 µM [activator, single point]"}
{"compound": "CCSc1nnc(NC(=O)[C@@H](NC(=O)c2cccc(C)c2)C(C)C)s1", "Potency": "inconclusive: 12.6 µM [activator, single point]"}
{"compound": "O=[N+]([O-])c1cccnc1Sc1ccc(Br)cc1", "Potency": "inactive"}
{"compound": "Cc1ccccc1COC(=O)CCCC1=NS(=O)(=O)c2ccccc2N1", "Potency": "inconclusive: 5.01 µM [activator, single point]"}
{"compound": "CC(OC(=O)CNC(=O)c1ccccc1)C(=O)Nc1ccc(S(=O)(=O)N2CCOCC2)cc1", "note": "(centres undefined)", "Potency": "inactive"}
{"compound": "COc1ccc(C(C#N)=C2C=C(Cl)C(=NO)C=C2Cl)cc1", "Potency": "inactive"}
{"compound": "COc1ccc(NC(=O)CCC(=O)c2cccs2)cc1S(=O)(=O)Nc1ccc(Cl)cc1", "activation": "inconclusive: -15% [activator]"}
{"compound": "CC1C=CCC2C(=O)N(c3cccc(C(=O)NCc4ccccc4)c3)C(=O)C12", "note": "(centres undefined)", "Potency": "inconclusive: 5.62 µM [activator, full curve]"}
{"compound": "Brc1ccccc1/C=N/N1CCCCC1", "Potency": "inconclusive: 10 µM [activator, partial curve, poor fit]"}
{"compound": "CCOc1ccc2nc(SCC(=O)NC3CCCCC3)[nH]c2c1", "Potency": "inconclusive: 5.01 µM [activator, single point]"}
{"compound": "Nc1nc(SCC(=O)Nc2ccc(C(F)(F)F)cc2)[nH]c(=O)c1NC(=O)c1ccc(F)c(F)c1", "Potency": "inconclusive: 10 µM [activator, single point]"}
{"compound": "COc1ccc(NC(=O)C(=O)NCC(=O)Nc2cc(OC)ccc2OC)cc1", "Potency": "inactive"}
{"compound": "CC1CC(NC2=NCCS2)CC(C)(C)C1", "note": "(centres undefined)", "Potency": "inconclusive: 7.08 µM [activator, partial curve, poor fit]"}
{"compound": "O=C(NCC(=O)N1CCN(c2ccccc2O)CC1)c1ccc2ccccc2c1", "Potency": "inconclusive: 3.16 µM [activator, partial curve, poor fit]"}
{"compound": "CNC(=O)NC(=O)C(OC(=O)Cc1cccc(C(F)(F)F)c1)c1ccccc1", "note": "(centres undefined)", "Potency": "inconclusive: 12.6 µM [activator, partial curve, poor fit]"}
{"compound": "COc1ccc(C2NCCO2)cc1OC", "note": "(centres undefined)", "Potency": "inactive"}
{"compound": "C(=C\\c1nc(N2CCCCCC2)c2ccccc2n1)/c1ccccc1", "Potency": "inactive"}
{"compound": "O=S(=O)(Cc1ccc(Cl)cc1)Nc1ccc2c(c1)OCO2", "Potency": "inconclusive: 14.1 µM [activator, partial curve, poor fit]"}
{"compound": "CCOC(=O)N/N=C\\c1ccc(OC/C=C/c2ccccc2)cc1", "Potency": "inactive"}
{"compound": "O=C(CCN1CCN(S(=O)(=O)c2ccc(Cl)cc2)CC1)Nc1ccccc1F", "Potency": "inconclusive: 28.2 µM [activator, single point]"}
{"compound": "Cc1cccc(OCc2nc(-c3ccc(Br)o3)no2)c1", "Potency": "inconclusive: 2.82 µM [activator, full curve, poor fit]"}
{"compound": "COc1ccc(C(=O)NNC(=O)Cc2ccc(Cl)cc2)cc1", "Potency": "inconclusive: 5.01 µM [activator, single point]"}
{"compound": "Cc1ccc2nc(NC(=O)CSCC(=O)OCC(=O)c3ccccc3)sc2c1", "Potency": "inactive"}
{"compound": "CC1CCC(NC(=O)CCN2C(=O)C3C4C=CC(C4)C3C2=O)CC1", "note": "(centres undefined)", "Potency": "inconclusive: 5.62 µM [activator, partial curve]"}
{"compound": "Cc1ccc2[nH]c(CCN(C)C)c(CN3CCOCC3)c2c1", "Potency": "inconclusive: 17.8 µM [activator, partial curve, poor fit]"}
{"compound": "O=C(COC(=O)Cn1cnc2ccccc21)Nc1ccc2c(c1)C(=O)c1ccccc1C2=O", "Potency": "inconclusive: 22.4 µM [activator, single point]"}
{"compound": "CC1Oc2ccccc2N(CC(=O)N2CCCCC2)C1=O", "note": "(centres undefined)", "Potency": "inconclusive: 0.631 µM [activator, full curve, poor fit]"}
{"compound": "CCCC(NS(=O)(=O)c1ccc(-c2ccc(=O)[nH]n2)s1)c1cccs1", "note": "(centres undefined)", "Potency": "inconclusive: 28.2 µM [activator, single point]"}
{"compound": "O=C(COC(=O)C1CC1)Nc1ccc(N=Nc2ccccc2)cc1", "Potency": "inactive"}
{"compound": "N#CCC(=O)Nc1ccc(C(=O)NNC(=O)c2ccccc2-n2cccc2)cc1", "Potency": "inconclusive: 10 µM [activator, single point]"}
{"compound": "Cc1ccc(CN(Cc2ccccn2)C(=O)Nc2c(F)cccc2F)cc1", "Potency": "inconclusive: 5.01 µM [activator, single point]"}
{"compound": "O=C(Nc1ccc(NC(=O)C2CC2)cc1)c1cccs1", "Potency": "inconclusive: 5.01 µM [activator, single point]"}
{"compound": "CN(C)S(=O)(=O)NCCNc1ccc(C(F)(F)F)cc1[N+](=O)[O-]", "Potency": "inconclusive: 5.01 µM [activator, single point]"}
{"compound": "Cc1cc(NC(=O)C2CC2)ccc1NC(=O)c1cccs1", "Potency": "inconclusive: 28.2 µM [activator, single point]"}
{"compound": "O=C(NC1=NCCS1)c1sc2cc(Cl)cc(Cl)c2c1Cl", "Potency": "inactive"}
{"compound": "CCc1nc(SCC(=O)Nc2ccccc2OC)c2c(C)c(C)sc2n1", "Potency": "inactive"}
{"compound": "CC(C)OC(=O)CSc1nc(N2CCOCC2)c2c(c1C#N)CC(C)(C)OC2", "Potency": "inactive"}
{"compound": "CC(C)(C)NC(=O)C1CC1(c1ccccc1)c1ccccc1", "note": "(centres undefined)", "Potency": "inconclusive: 28.2 µM [activator, single point]"}
{"compound": "Cn1c(CCn2ccccc2=O)nc2cc(NC(=O)COc3ccccc3)ccc21", "Potency": "inconclusive: 2.24 µM [activator, partial curve, poor fit]"}
{"compound": "O=S(=O)(Nc1ccc(S(=O)(=O)Nc2nccs2)cc1)c1ccc2c(c1)OCCO2", "Potency": "inactive"}
{"compound": "CCOC(=O)c1cc(-c2ccc(Cl)s2)[nH]n1", "Potency": "inconclusive: 12.6 µM [activator, single point]"}
{"compound": "COc1cccc(-n2ccn(CC(=O)NCCc3ccccc3)c(=O)c2=O)c1", "Potency": "inconclusive: 4.47 µM [activator, single point]"}
